The values below come from the supplement of paper PMC10338343.

± gives the standard deviation. The list shows a part of the results, in another mix than the full data. Many entries were measured with a wide error.

One test deals with MILI (PIWIL2) piRISC loaded with L1MC piRNA (26 nt). Nature of the test: pre-steady-state target cleavage rate (min^-1); MIWI and MILI are mouse PIWI proteins and EfPiwi is from a freshwater sponge; tags in brackets are library labels; higher = faster piRNA-guided slicing of the target. As to conditions: guide: L1MC piRNA 5'p-UAACUAAAUACUAUGCAAGCUGUAGG; auxiliary factor: 500 nM mouse GTSF1. As to the method: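 Cleave-'n-Seq: a library of target RNAs (target site embedded in constant flanks, ACAGCATTCCGCGTTAGTGATATCCG... 5' flank; DNA-blocked outside the site) at 0.1 nM was incubated with 1 nM active mouse MILI or MIWI piRISC (synthetic 5'-monophosphorylated piRNA guide) with or without 500 nM mouse GTSF1 at 33 °C for 1 min to 16 h. Uncleaved targets were sequenced and normalised to non-target controls, and the pooled three trials were fitted to a burst-and-steady-state model to give the pre-steady-state cleavage rate (min^-1; k3 is constrained to at most 1e-4). Sequence is the target site only; target names encode pairing extent (gX:gY) and contiguous / 1-mismatch / 2-mismatch / bulge geometry. Fits with R² ≤ 0 are excluded.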
In the case of UCCUCCUUCAGCUUGGAUAGUAUUUAGUUA, the “pre-steady-state target cleavage rate” value was found to be 0.242 ± 0.015.

Turning to UCCUCCUACAGCUUGCUUAGUAAUUAGUUA, the “pre-steady-state target cleavage rate” value worked out at 0.24 ± 0.015.

With UCCUGGAUGUCGUUGCAUGGUAUUUAGUUA, the “pre-steady-state target cleavage rate” value was determined as 0.0354 ± 0.01.

As for UCCUGGAUGAGCUUGCAUAGUAUUUAGGUUA, the “pre-steady-state target cleavage rate” value turned out to be 0.195 ± 0.028.

Consider UCCUCCUACAGCUUGCAUAGUAUUUAAUUA, for which the “pre-steady-state target cleavage rate” value was found to be 0.11 ± 0.019.

Take UCCUGGAACAGCUUGCGUAGUAUUUAGUUA: the “pre-steady-state target cleavage rate” value is 0.277 ± 0.016.

For the sequence UCCUGGAUGUGCUUGCAUAGAAUUUUGUUA, the “pre-steady-state target cleavage rate” value was 0.00435 ± 0.0052.

Turning to UCCUGGAUGAGCUUCCAUAGUUUUUAGUUA, the “pre-steady-state target cleavage rate” value was 0.00464 ± 0.005.

Regarding UCCUGGUUACAGCUUGCAUAGUAUUUAGUUA, the “pre-steady-state target cleavage rate” value is 0.256 ± 0.025.

With UCCUGCAACAGCUUGCAUAGUUUUUAGUUA, the “pre-steady-state target cleavage rate” value turned out to be 0.0613 ± 0.0099.

As for UCCUGGAUCAGCUUGGAUUGUAUUUAGUUA, the “pre-steady-state target cleavage rate” value is 0.00167 ± 0.0061.

On to UCCUGGAUGUGCUUGCAUAGUUUUAGUUA, for which the “pre-steady-state target cleavage rate” value is 0.00191 ± 0.0061.

Turning to UCCUGGAACAGGAAGCAUAGUAUUUAGUUA, the “pre-steady-state target cleavage rate” value turned out to be 0.199 ± 0.016.

Take UCCUGGUACAGCUUGCAUAGUAUUAAGUAA: the “pre-steady-state target cleavage rate” value came to 0.128 ± 0.035.

Take UCCUGCUACAGCUUGCAUAGUAUUUUGAAA: the “pre-steady-state target cleavage rate” value is 0.112 ± 0.029.

Regarding UCCUCCUACAGCUUGCUUAGUUUUUAGUUA, the “pre-steady-state target cleavage rate” value was 0.0513 ± 0.01.

The test is the same for the next values; noted with them: guide: L1MC piRNA 5'p-UAACUAAAUACUAUGCAAGCUGUAGG; auxiliary factor: none (no GTSF1).
As to UCCUCCUUCAGCUUGGAUAGUAUUUAGUUA, the “pre-steady-state target cleavage rate” value stood at 0.0086 ± 0.0023.

UCCUCCUACAGCUUGCUUAGUAAUUAGUUA: the “pre-steady-state target cleavage rate” value amounted to 0.00424 ± 0.0021.

On to UCCUGGAUGUCGUUGCAUGGUAUUUAGUUA, for which the “pre-steady-state target cleavage rate” value amounted to 0.00854 ± 0.0034.

UCCUGGAUGAGCUUGCAUAGUAUUUAGGUUA: the “pre-steady-state target cleavage rate” value stood at 0.0044 ± 0.0031.

For the sequence UCCUGCUACAGCUUGCAUAGUAUAUACAAA, the “pre-steady-state target cleavage rate” value amounted to 0.0012 ± 0.0044.

As to UCCUGGAUGUCGAAGCAUAGUAUUUAGUAA, the “pre-steady-state target cleavage rate” value was found to be 0.00224 ± 0.0026.

In the case of UCCUGGAUCAGCUUGCAUAGUAUUAAGAAA, the “pre-steady-state target cleavage rate” value stood at 0.00109 ± 0.0051.

Turning to UCCUGCUACAGCUUGCAUAGUAUUUAGCUA, the “pre-steady-state target cleavage rate” value is 0.000849 ± 0.0064.

As to UCCUCCUACAGCUUGCAUAGUAUUUAAUUA, the “pre-steady-state target cleavage rate” value came to 0.00326 ± 0.0027.

On to UCCUGGAACAGCUUGCGUAGUAUUUAGUUA, for which the “pre-steady-state target cleavage rate” value was found to be 0.00716 ± 0.0018.

For UCCUGCUAGUCCUUGCAUAGUAUUUUCAAA, the “pre-steady-state target cleavage rate” value stood at 0.000619 ± 0.0099.

Regarding UCCUGGAUGUGCUUGCAUAGAAUUUUGUUA, the “pre-steady-state target cleavage rate” value was determined as 0.00128 ± 0.0063.

In the case of UCCUGGAUCAGCUUGCUUAGUAUUUACAAA, the “pre-steady-state target cleavage rate” value was determined as 0.000967 ± 0.0059.

On to UCCUGGAUGAGCUUCCAUAGUUUUUAGUUA, for which the “pre-steady-state target cleavage rate” value came out at 0.000705 ± 0.0088.

On to UCCUGGUUACAGCUUGCAUAGUAUUUAGUUA, for which the “pre-steady-state target cleavage rate” value is 0.03 ± 0.0078.

For the sequence UCCUGCAACAGCUUGCAUAGUUUUUAGUUA, the “pre-steady-state target cleavage rate” value stood at 0.00354 ± 0.0029.

UCCUGGAUCAGCUUGGAUUGUAUUUAGUUA: the “pre-steady-state target cleavage rate” value stood at 0.000957 ± 0.0061.

Take UCCUGGAACAGCUUGCAUAGUUAAUACAAA: the “pre-steady-state target cleavage rate” value turned out to be 0.0013 ± 0.0046.

With UCCUGGAUGUGCUUGCAUAGUUUUAGUUA, the “pre-steady-state target cleavage rate” value came to 0.00114 ± 0.0049.

For UCCUGGAACAGGAAGCAUAGUAUUUAGUUA, the “pre-steady-state target cleavage rate” value stood at 0.00491 ± 0.0024.

As for UCCUGGUACAGCUUGCAUAGUAUUAAGUAA, the “pre-steady-state target cleavage rate” value amounted to 0.00168 ± 0.0047.

As for UCCUGGUACAGCUUCCAUAGUAUUUUGUUA, the “pre-steady-state target cleavage rate” value was 0.00203 ± 0.0051.

For the sequence UCCUGCUACAGCUUGCAUAGUAUUUUGAAA, the “pre-steady-state target cleavage rate” value stood at 0.000867 ± 0.0079.

In the case of UCCUCCUACAGCUUGCUUAGUUUUUAGUUA, the “pre-steady-state target cleavage rate” value was determined as 0.00379 ± 0.0023.
